Experimental data from patent US20020028479A1, “Methods for the detection of fungal growth” (priority 2000, published 2002).
Converted amounts (≈) assume the structure as drawn.

Test system: Aspergillus nidulans 200092
Assay: MTS/MEN growth inhibition assay, OD490;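 note: fungal spore suspensions in 96-well plates with MTS/MEN indicator, absorbance read after 2 h and again after further development up to 24 h, controls containing medium only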

IC50 (Aspergillus nidulans, 200092, 2 h): 0.0325 µg/mL (≈ 0.0943 µM)
IC50 (Aspergillus nidulans, 200092, 24 h): 0.00068 µg/mL (≈ 0.00197 µM)
SMILES: Clc1ccccc1C(c1ccccc1)(c1ccccc1)n1ccnc1 [Clotrimazole, clotrimazole]
